Reference: PubChem BioAssay AID1259354 (Paczesny and Yang Labs, IUPUI and University of Michigan, 2018)
The campaign covered roughly 78,000 compounds. About 1,800 (2.3%) were called active. Inconclusive results, whose numbers are uncertain, are shown with a selection of clear calls. No stated cut-off is given here; in the data, active means inhibition above about 30%; inconclusive means mostly about 10% to 28%; inactive means weaker than that.

By UniProt entry, the sequences of proteins in these tests, tags left out. Where a name states a change or a piece, a line headed by the entry shows the natural chain unless it says otherwise.
UniProt Q01638: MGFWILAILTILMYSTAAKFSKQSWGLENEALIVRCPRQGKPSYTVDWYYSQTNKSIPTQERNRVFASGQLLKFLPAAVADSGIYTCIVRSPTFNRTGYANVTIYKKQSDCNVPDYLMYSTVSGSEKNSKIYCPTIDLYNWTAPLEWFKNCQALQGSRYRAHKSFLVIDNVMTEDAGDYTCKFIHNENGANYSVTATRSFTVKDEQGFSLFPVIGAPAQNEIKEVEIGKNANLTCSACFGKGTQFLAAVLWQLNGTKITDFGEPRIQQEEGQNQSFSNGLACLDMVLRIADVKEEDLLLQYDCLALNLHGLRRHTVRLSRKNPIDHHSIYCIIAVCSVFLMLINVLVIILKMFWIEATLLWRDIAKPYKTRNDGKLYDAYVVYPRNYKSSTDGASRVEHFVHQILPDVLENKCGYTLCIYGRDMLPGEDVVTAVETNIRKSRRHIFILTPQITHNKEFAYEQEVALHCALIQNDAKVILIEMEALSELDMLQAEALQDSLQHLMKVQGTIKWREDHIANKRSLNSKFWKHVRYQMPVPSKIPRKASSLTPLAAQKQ

molecular target: Interleukin-1 receptor-like 1 (Homo sapiens) (UniProt Q01638); assay: blocks human ST2 binding to IL-33, primary screen, biochemical, AlphaLISA (AID 1259354); conditions: AlphaLISA ST2-Fc/biotin-IL-33 interaction, 1 h; at 17 µM, hits give high values

| Structure (SMILES) | inhibition |
| --- | --- |
| CN(Cc1cc(-c2ccccn2)no1)C1CCC2(CCNCC2)CC1 | inconclusive: 13% |
| Cc1cccc(NC(=O)CCC2CCN(C(=O)CSc3ccccn3)CC2)c1 | inconclusive: 10% |
| Cc1cccc(CN2CCC(O)(c3ccc4oc(C(=O)N(C)Cc5cscn5)cc4c3)CC2)c1 | inactive |
| COc1ccc(N2CN=c3s/c(=C\c4cccc([N+](=O)[O-])c4)c(=O)n3C2)cc1 | active: 33% |
| COc1ccc(/C(N)=N\OC(=O)c2ccc3c(c2)OCO3)cc1 | inactive |
| Cc1cccc2cc(CC3CC(c4ccccc4)=NN3C(=O)CCC(=O)O)c(Cl)nc12 (stereo not given) | inconclusive: 18% |
| Cc1ccoc1C(=O)N(Cc1ccccn1)CC(C)C | inconclusive: 20% |
| CCC1=NC(c2ccc(OC)cc2OC)N(O)C1(C)C (stereo not given) | inconclusive: 13% |
| CN(C)CC(O)COc1ccccc1 (stereo not given) | inconclusive: 13% |
| COc1ccccc1CN1CCC(CN(CC(C)C)C(=O)/C=C/c2ccco2)CC1 | inconclusive: 19% |
| Cc1ccc(Cl)cc1NC(=O)c1ccc(Br)o1 | inconclusive: 15% |
| Cn1c(N2CCN(C3c4ccccc4-c4ccccc43)CC2)nc2ccccc21 | inconclusive: 15% |
| COc1ccccc1C(=O)NCCn1cc(SCc2cccc(F)c2)c2ccccc21 | inconclusive: 11% |
| CCC(OC)c1n[nH]c(=O)n1CC(=O)O (stereo not given) | inconclusive: 11% |
| CC(C)c1ccc(C(=O)NCCCN2CCOCC2)cc1 | inconclusive: 14% |
| CC(CN1CCCCCC1)NCC1CCN(C(=O)C(C)C)CC1 (stereo not given) | inconclusive: 18% |
| CS(=O)(=O)c1ccc2nc(NC(=O)c3ccccc3C(=O)O)sc2c1 | inactive |
| Cc1ccc2nc(NC(=O)c3ccc(S(=O)(=O)N4CCc5ccccc54)cc3)sc2c1 | inconclusive: 11% |
| CC(C)c1ccc(NS(=O)(=O)c2ccc3c(c2)CCC(=O)N3)cc1 | inactive |
| N#Cc1ccccc1NC(=O)CSc1n[nH]c(-c2ccccc2)n1 | inactive |
| Fc1ccc(CNc2nc(-c3cccs3)cc(C(F)(F)F)n2)cc1 | inactive |
| O=C(Nc1cc2cc([N+](=O)[O-])ccc2oc1=O)c1ccc(Cl)cc1Cl | inactive |
| CCN1CCN(c2nc(C)c3cc4c(cc3n2)CCC4)CC1 | inconclusive: 11% |
| CCc1c(C)nc2c(-c3cccc(Br)c3)c[nH]n2c1=O | inconclusive: 13% |

| Structure (SMILES) | inhibition |
| --- | --- |
| O=C(COCC1CCCCO1)N1CC2CC3CC1C[C@@H](C3)C2 (stereo not given in full) | inconclusive: 19% |
| CCC(C)NC(=O)Cn1c(=O)n(-c2cc(OC)cc(OC)c2)c(=O)c2sccc21 (stereo not given) | inconclusive: 12% |
| CCc1nc(C2CC(=O)Nc3c2cnn3Cc2ccccc2Cl)c(C)[nH]1 (stereo not given) | inconclusive: 13% |
| Cc1ccc(C2C(N3C(=O)c4ccc([N+](=O)[O-])cc4C3=O)C(=O)N2c2ccc(C)c(F)c2)cc1 (stereo not given) | inconclusive: 16% |
| O=C1c2c(O)cc(O)cc2OC1(O)Cc1ccc(O)cc1 (stereo not given) | inconclusive: 10% |
| Cc1nc(CNC(=O)C(=O)c2cccs2)cs1 | inconclusive: 17% |
| O=C1CN(C(=O)c2nn(CCCc3ccccc3)c3c2CN(C(=O)CC2=CCCCC2)CC3)CCN1 | inconclusive: 10% |
| CC(C)CCNC(=O)c1cc(-c2ccncc2)nc2ccccc12 | inconclusive: 17% |
| Cc1ccc2nc(SCCN3CCOCC3)[nH]c2c1 | inconclusive: 15% |
| Cc1cccn2c(Nc3ccccc3)c(-c3ccco3)nc12 | inconclusive: 11% |
| O=C(NC1CCCCC1)N1CCN(c2ccc(F)cc2)CC1 | inconclusive: 11% |
| CCN(CC)C(=O)c1cn(C2CCN(C(=O)C3(N)CCCC3)CC2)nn1 | inactive |
| CN1CCN(Cc2cc([N+](=O)[O-])ccc2O)CC1 | inactive |
| COC(=O)c1c(C)cc(O)c(C)c1OC1C(=O)C(C)=C(O)C(O)C1(C)OC (stereo not given) | inconclusive: 18% |
| O=C(Nc1cc(F)ccc1F)c1cnn(-c2ccccc2)c1C1CCNCC1 | inconclusive: 28% |
| COc1ccc(C(c2nnnn2C(c2ccccc2)c2ccccc2)N2CCOCC2)cc1 (stereo not given) | inactive |
| CCCN(CCC)c1ccc(C2NC(=O)c3c(sc(C)c3C)N2)cc1 (stereo not given) | inconclusive: 10% |
| COc1cc(C(=O)Nc2sc3c(c2-c2nc4ccccc4s2)CCN(C)C3)cc(OC)c1OC | inconclusive: 28% |
| Cc1cc(CC(C)Nc2nc(-c3cccnc3)nc3c2cnn3C)n[nH]1 (stereo not given) | inconclusive: 13% |
| O=C(Nc1nc2ccccc2n1Cc1ccc(Cl)cc1)c1ccco1 | inconclusive: 17% |
| COC(=O)c1ccc(CNC2CCCc3c2cnn3-c2ccccc2F)cc1 (stereo not given) | inconclusive: 15% |
| Cc1cccc(-c2noc([C@@H]3C[C@@H](O)CN3Cc3ccc(F)cc3)n2)c1 | inactive |
| CCc1ccc(CN(C)Cc2cn[nH]c2-c2cc(OC)c(OC)c(OC)c2)nc1 | inactive |
| CC(=O)Nc1ccc(CN2Cc3[nH]cnc3C[C@H]2c2nc(-c3ccc(F)cc3)no2)cc1 | inconclusive: 15% |

Compounds listed so far containing a COOH group, in the order listed:

| Structure (SMILES) | inhibition |
| --- | --- |
| Cc1cccc2cc(CC3CC(c4ccccc4)=NN3C(=O)CCC(=O)O)c(Cl)nc12 (stereo not given) | inconclusive: 18% |
| CCC(OC)c1n[nH]c(=O)n1CC(=O)O (stereo not given) | inconclusive: 11% |
| CS(=O)(=O)c1ccc2nc(NC(=O)c3ccccc3C(=O)O)sc2c1 | inactive |

Remaining list, next part:

| Structure (SMILES) | inhibition |
| --- | --- |
| CC(C)CCOC(=O)c1cc2cc(Br)ccc2oc1=O | inconclusive: 12% |
| CC(=O)Nc1ccc(CN2CCOC(Cc3ccccc3)C2)cc1 (stereo not given) | inconclusive: 11% |
| CC1CCCCN1CCCNC(=O)c1ccc2c(c1)NC(=O)C(N1CCCCC1)S2 (stereo not given) | inconclusive: 12% |
| COc1cc(C2=N/C(=C\c3ccc(N(C)C)cc3)C(=O)O2)cc(OC)c1OC | inconclusive: 20% |
| Oc1c(Cl)cc(Cl)cc1C=Nc1ccc2c(c1)OCCO2 | inconclusive: 16% |
| O=C(c1cn[nH]n1)N1C[C@@H]2C[C@H]1CN2Cc1ccccc1 | inconclusive: 10% |
| Cc1ccc(-n2cc(-c3ccc(Cl)cc3)[nH]c2=O)cc1Cl | inconclusive: 10% |
| Cc1ccc(NC(=O)CC(C)C)c(NC(=O)CC(C)C)c1 | inconclusive: 10% |
| Cc1ccc(C(=O)Nc2ccc([N+](=O)[O-])cc2C)c(Cl)c1 | inconclusive: 16% |
| CCSc1nc2c(c(=O)[nH]1)C(c1cccc(F)c1)C1=C(CC(C)(C)CC1=O)N2 (stereo not given) | inconclusive: 16% |
| NC(=O)Cc1c[nH]c2cccc(O)c12 | active: 101% |
| CCCS(=O)(=O)N1CCN(c2nc(C)cc(Nc3ccc(OC)cc3)n2)CC1 | inconclusive: 10% |
| O=C(CSCc1ccc(Cl)cc1)Nc1cccc(F)c1 | inactive |
| CCCCNC(=O)N1CC(C)CC(C)C1 (stereo not given) | inconclusive: 10% |
| O=C(CSc1ccccn1)NC1CCCc2nc(-c3cccnc3)ncc21 (stereo not given) | inconclusive: 10% |
| Cc1ccc(Cn2c(CCNC(=O)Nc3ccc(C)cc3Cl)nc3cccnc32)cc1 | inconclusive: 14% |
| O=C(COc1cc(Cl)c(Cl)cc1Cl)N1CCN(c2ccc([N+](=O)[O-])cc2)CC1 | inconclusive: 14% |
| COc1ccc(N2C(=O)CCc3c(-c4ccccc4)cc(N(C)C)cc32)cc1 | inconclusive: 28% |
| COc1ccccc1Nc1nc(-c2ccc(OC)c(OC)c2)cs1 | inconclusive: 11% |
| CC(C)C(NS(=O)(=O)c1cccs1)C(=O)Nc1ccc(F)c(F)c1 (stereo not given) | inactive |
| Cc1cc(O)c(NC(=O)c2ccccc2C)cc1C | inactive |
| O=C1Nc2ccccc2C12CCCN(Cc1cnc(-c3ccccn3)nc1)C2 (stereo not given) | inconclusive: 16% |
| O=[N+]([O-])c1nn(-c2ccccc2)n(O)c1=NCc1ccc(F)cc1 | inactive |
| O=C(Nc1ccc(F)c(Cl)c1)c1ccc(Cl)cc1[N+](=O)[O-] | inconclusive: 24% |

As a short view, some entries already given.

| Structure (SMILES) | inhibition |
| --- | --- |
| CC(C)C(NS(=O)(=O)c1cccs1)C(=O)Nc1ccc(F)c(F)c1 (stereo not given) | inactive |
| Cc1cc(O)c(NC(=O)c2ccccc2C)cc1C | inactive |

(next part)

| Structure (SMILES) | inhibition |
| --- | --- |
| COc1cccc(CCn2ccnc2-c2ccco2)c1OC | inactive |
| CCCCNC(=O)CN1C(=O)/C(=C\c2ccc(Cl)cc2)Sc2ccccc21 | inactive |
| CCCc1cnc(C)nc1-c1cccc(NC(C)=O)c1 | inconclusive: 14% |
| COCCN(Cc1cccs1)C(=O)c1ccc(F)c(C)c1 | inconclusive: 20% |
| O=c1ccnc(SCc2ccc(Br)cc2)[nH]1 | inactive |
| Cc1ccc(N2C(=O)CSC2=NC(=O)Nc2ccccc2)c(C)c1 | inactive |
| O=C(Nc1ncc(Cc2ccc(F)cc2)s1)c1ccccc1[N+](=O)[O-] | inconclusive: 10% |
| CN1[C@@H](CCC(=O)N2CCCC2)CNC(=O)[C@@H]2[C@H]1CCN2C1CCCCC1 | inconclusive: 19% |
| COc1ccccc1N1CCN(C2CCN(S(=O)(=O)c3ccc(Cl)cc3)CC2)CC1 | inactive |
| CN(C)c1ccc(/C=C2\SC(N3CCCC3)=NC2=O)cc1 | inconclusive: 20% |
| CC(C)(O)C#Cc1ccc(C(=O)N2Cc3ccccc3OC(c3ccccc3)C2)cc1 (stereo not given) | inconclusive: 17% |
| COc1cccc(N2C(=O)C3C4C=CC(CC4)C3C2=O)c1 (stereo not given) | inconclusive: 10% |
| O=[N+]([O-])c1ccc(N2CCN(S(=O)(=O)Cc3ccccc3)CC2)cc1Sc1ccccn1 | inconclusive: 25% |
| c1ccc(-c2ccc(NCc3cccnc3-n3ccnc3)nn2)cc1 | inconclusive: 15% |
| Cc1ccc(C)c(OCCN2CC(C(=O)O)CC2=O)c1 (stereo not given) | inactive |
| N#CCSC1=Nc2ccccc2C2=NC(Cc3c[nH]c4ccccc34)C(=O)N12 (stereo not given) | inconclusive: 17% |
| Cc1ccc(C)c(S(=O)(=O)N2CCN(c3nc(C)cc(N4CCCC4)n3)CC2)c1 | inactive |
| O=C(C[C@@H]1CCNC[C@@H]1Cc1cc(-c2ccccn2)on1)NCc1ccco1 | inconclusive: 10% |
| COc1ccccc1NC(=O)c1c(N=Cc2cc(Cl)cc(Cl)c2OC)cnn1C | inconclusive: 12% |
| Brc1ccc(Br)c2cnccc12 | inconclusive: 22% |
| C[C@H](C(=O)N1CCSCC1)C1CC[C@@]2(C)Cc3sc(Nc4c(Cl)cccc4Cl)nc3[C@@H](C)[C@@H]2[C@H]1O (stereo not given in full) | inconclusive: 12% |
| NC(=O)c1c(NC(=O)c2cc(-c3cccc(Cl)c3)on2)sc2c1CCCC2 | inactive |
| O=c1cc(O)cc(/C=C/c2ccc(O)c(O)c2)o1 | inconclusive: 15% |
